Results deposited as PubChem BioAssay AID1508597 (Cure First, 2020)
Screen: 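Survival screen with siRNA in ovarian cancer cells derived from patients, with or without rucaparib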 (primary screen). Cell system: human ovarian carcinoma lines grown from tumours: OCI-P5x (papillary serous) and OCI-C5x (clear cell). Knock-down reagent: siRNA pool against human genes, 1.25 pmol siRNA per well. Duration: 72 h or 96 h, depending on the cell culture. Treatment: rucaparib 20 µM (about IC30) or vehicle, present until read-out. Detection: 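Luminescent ATP-based viability assay read 72 or 96 h after transfection, depending on culture, given as normalised percent viability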. Scale: viability, normalised: higher = more viable cells remaining. Hit rule: 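Active when normalised viability falls below 80 percent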. Meaning of the calls: active = viability under 80%; inactive = viability 80% or more.
Shown is one part, drawn at random, of about 2,100 reagents tested. 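Calls flag viability under 80% in either arm, not effects specific to rucaparib; the reference for percent is not stated.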 A number with no mark means an inactive call. Not stated in the record: the 100% reference.

gene symbol	rucaparib or vehicle	cell line	technical replicate	viability, normalised (%)
KDR	Rucaparib	OCI-C5x (clear cell)	1	53.4 (active)
KDR	Rucaparib	OCI-C5x (clear cell)	2	67.2 (active)
KDR	Rucaparib	OCI-C5x (clear cell)	3	37.1 (active)
KDR	Rucaparib	OCI-P5x (serous)	1	106
KDR	Rucaparib	OCI-P5x (serous)	2	57.8 (active)
KDR	Rucaparib	OCI-P5x (serous)	3	93.3
KDR	Vehicle	OCI-C5x (clear cell)	1	41.4 (active)
KDR	Vehicle	OCI-C5x (clear cell)	2	41.1 (active)
KDR	Vehicle	OCI-C5x (clear cell)	3	32.4 (active)
KDR	Vehicle	OCI-P5x (serous)	1	56.6 (active)
KDR	Vehicle	OCI-P5x (serous)	2	68.7 (active)
KDR	Vehicle	OCI-P5x (serous)	3	75.1 (active)
SMPDL3A	Rucaparib	OCI-C5x (clear cell)	1	69.5 (active)
SMPDL3A	Rucaparib	OCI-C5x (clear cell)	2	65 (active)
SMPDL3A	Rucaparib	OCI-C5x (clear cell)	3	50.9 (active)
SMPDL3A	Rucaparib	OCI-P5x (serous)	1	44.7 (active)
SMPDL3A	Rucaparib	OCI-P5x (serous)	2	48.6 (active)
SMPDL3A	Rucaparib	OCI-P5x (serous)	3	43.4 (active)
SMPDL3A	Vehicle	OCI-C5x (clear cell)	1	65.3 (active)
SMPDL3A	Vehicle	OCI-C5x (clear cell)	2	45.4 (active)
SMPDL3A	Vehicle	OCI-C5x (clear cell)	3	41.4 (active)
SMPDL3A	Vehicle	OCI-P5x (serous)	1	68.7 (active)
SMPDL3A	Vehicle	OCI-P5x (serous)	2	62.6 (active)
SMPDL3A	Vehicle	OCI-P5x (serous)	3	66.7 (active)
PMS2	Rucaparib	OCI-C5x (clear cell)	1	95
PMS2	Rucaparib	OCI-C5x (clear cell)	2	103
PMS2	Rucaparib	OCI-C5x (clear cell)	3	133
PMS2	Rucaparib	OCI-P5x (serous)	1	162
PMS2	Rucaparib	OCI-P5x (serous)	2	179
PMS2	Rucaparib	OCI-P5x (serous)	3	141
PMS2	Vehicle	OCI-C5x (clear cell)	1	101
PMS2	Vehicle	OCI-C5x (clear cell)	2	110
PMS2	Vehicle	OCI-C5x (clear cell)	3	114
PMS2	Vehicle	OCI-P5x (serous)	1	155
PMS2	Vehicle	OCI-P5x (serous)	2	162
PMS2	Vehicle	OCI-P5x (serous)	3	162
FOXA3	Rucaparib	OCI-C5x (clear cell)	1	41.6 (active)
FOXA3	Rucaparib	OCI-C5x (clear cell)	2	36.8 (active)
FOXA3	Rucaparib	OCI-C5x (clear cell)	3	38.4 (active)
FOXA3	Rucaparib	OCI-P5x (serous)	1	52.2 (active)
FOXA3	Rucaparib	OCI-P5x (serous)	2	65.3 (active)
FOXA3	Rucaparib	OCI-P5x (serous)	3	53.7 (active)
FOXA3	Vehicle	OCI-C5x (clear cell)	1	41.3 (active)
FOXA3	Vehicle	OCI-C5x (clear cell)	2	53.5 (active)
FOXA3	Vehicle	OCI-C5x (clear cell)	3	65.9 (active)
FOXA3	Vehicle	OCI-P5x (serous)	1	60.9 (active)
FOXA3	Vehicle	OCI-P5x (serous)	2	75.2 (active)
FOXA3	Vehicle	OCI-P5x (serous)	3	61.8 (active)
GPX4	Rucaparib	OCI-C5x (clear cell)	1	56.2 (active)
GPX4	Rucaparib	OCI-C5x (clear cell)	2	46.1 (active)
GPX4	Rucaparib	OCI-C5x (clear cell)	3	46.9 (active)
GPX4	Rucaparib	OCI-P5x (serous)	1	49.5 (active)
GPX4	Rucaparib	OCI-P5x (serous)	2	42.1 (active)
GPX4	Rucaparib	OCI-P5x (serous)	3	61 (active)
GPX4	Vehicle	OCI-C5x (clear cell)	1	38.3 (active)
GPX4	Vehicle	OCI-C5x (clear cell)	2	46.6 (active)
GPX4	Vehicle	OCI-C5x (clear cell)	3	50 (active)
GPX4	Vehicle	OCI-P5x (serous)	1	53.7 (active)
GPX4	Vehicle	OCI-P5x (serous)	2	63.7 (active)
GPX4	Vehicle	OCI-P5x (serous)	3	62.3 (active)

Ordered by “viability, normalised (%)” (low to high): some entries from above.
gene symbol	rucaparib or vehicle	cell line	technical replicate	viability, normalised (%)
SMPDL3A	Rucaparib	OCI-P5x (serous)	3	43.4 (active)
SMPDL3A	Rucaparib	OCI-P5x (serous)	1	44.7 (active)
SMPDL3A	Rucaparib	OCI-P5x (serous)	2	48.6 (active)
SMPDL3A	Rucaparib	OCI-C5x (clear cell)	3	50.9 (active)
KDR	Vehicle	OCI-P5x (serous)	1	56.6 (active)
SMPDL3A	Rucaparib	OCI-C5x (clear cell)	2	65 (active)
KDR	Vehicle	OCI-P5x (serous)	2	68.7 (active)
SMPDL3A	Rucaparib	OCI-C5x (clear cell)	1	69.5 (active)
KDR	Vehicle	OCI-P5x (serous)	3	75.1 (active)
